Data: patent publication US8173392B2, “In vivo incorporation of unnatural amino acids” (The Scripps Research Institute, priority 2001, dated 2012)
Some of these results come from one statement about several compounds together. At least one structure is not confirmed: it was looked up by name or label, or the drawing left a doubt.

System: DH10B harboring pBLAM-YQRS and pACYsupA38
Assay: cell toxicity screen of unnatural amino acids in glycerol minimal media
Type: cell-based, E. coli
Details: 1 mM in glycerol minimal media

## NNC(=O)CCC(N)C(=O)O (stereo not shown) [S47]
  toxicity group (increase of doubling times): extreme toxicity (doubling times increase by more than about 100%)
